Experimental data taken from US4536396A, “Synergistic sweetening compositions” (Pfizer Inc., priority 1983, dated 1985).
“Also recorded” adds a separate entry of the source.

Assay: Sensory analysis of relative sweetness intensity and taste quality of aqueous solutions compared with sucrose solutions

Compound: CC1=CC(=O)NS(=O)(=O)O1 [AS-K, 6-Methyl-1,2,3-oxathiazin-4(3H)-one-2,2-dioxide]
- Bitter taste quality of aqueous solutions (concentrations above that equal in sweetness to 6% sucrose): undesirable bitter taste quality; also recorded: the bitter chemical taste of AS-K becomes objectionable
- Bitter aftertaste of aqueous solutions (concentrations equivalent to less than 6% sucrose): lack of bitter aftertaste

Compound: C[C@@H](NC(=O)[C@@H](N)CC(=O)O)C(=O)NC1C(C)(C)SC1(C)C [CP-54,802, 3-(L-Aspartyl-D-alaninamido)-2,2,4,4-tetramethylthietane]
- Relationship between concentration and sucrose equivalence (2-10% sucrose): more nearly linear relationship between concentration and sucrose equivalence
- Taste quality of aqueous solutions (all solutions, 2-10% sucrose equivalent): clean, sugar-like taste quality with a slightly slow onset of sweetness
